Article PMC6422423, “Constitutively active BRS3 is a genuinely orphan GPCR in placental mammals” (PLoS Biology, 2019)

Columns and labels:
[1] = target: aardvark bombesin receptor subtype-3 (aardvark (Orycteropus afer)); assay: radioligand binding; displacement of 50 pM [125I]-Tyr42-GRP by unlabeled peptide on disaggregated transfected HEK293 cells; 1 h at 21°C; 24.5 mM HEPES pH 7.4, 98 mM NaCl; bound tracer separated by centrifugation; only the binder purified
[2] = target: gastrin-releasing peptide receptor; assay: as above
[3] = target: neuromedin B receptor; assay: radioligand binding; displacement of 50 pM [125I]-Tyr-NMB by unlabeled peptide on disaggregated transfected HEK293 cells; 1 h at 21°C; 24.5 mM HEPES pH 7.4, 98 mM NaCl; bound tracer separated by centrifugation; only the binder purified

binding [1]: no binding (tested: Ki > 1,000 nM)
binding [2]: binds
binding [3]: no binding
B1: gastrin-releasing peptide, unlabeled ligand peptide of the radioligand binding assays (peptide)
peptide: APLQPGGSPALTKIYPRGSHWAVGHLM

These are yes or no findings as the source states them, for the method shown. For part of these data: A result given as binding can be weak or reduced; the word gives no strength.
